# No constants are given. Whether binding was seen depends on the method and setting. For some assays here: Binding seen in cells or lysates may run through a third protein. Some entries that bind do so weakly or less than the wild type.
# Protein sequences, listed by entry. Tags and fused reporters are not part of them. Lines headed by an entry give the natural chain unless they say otherwise; changes in a name come on top. Chains listed by the source or under a name are the forms on record and can include a tag or linker. Residues count along the entry.
# UniProt P26039: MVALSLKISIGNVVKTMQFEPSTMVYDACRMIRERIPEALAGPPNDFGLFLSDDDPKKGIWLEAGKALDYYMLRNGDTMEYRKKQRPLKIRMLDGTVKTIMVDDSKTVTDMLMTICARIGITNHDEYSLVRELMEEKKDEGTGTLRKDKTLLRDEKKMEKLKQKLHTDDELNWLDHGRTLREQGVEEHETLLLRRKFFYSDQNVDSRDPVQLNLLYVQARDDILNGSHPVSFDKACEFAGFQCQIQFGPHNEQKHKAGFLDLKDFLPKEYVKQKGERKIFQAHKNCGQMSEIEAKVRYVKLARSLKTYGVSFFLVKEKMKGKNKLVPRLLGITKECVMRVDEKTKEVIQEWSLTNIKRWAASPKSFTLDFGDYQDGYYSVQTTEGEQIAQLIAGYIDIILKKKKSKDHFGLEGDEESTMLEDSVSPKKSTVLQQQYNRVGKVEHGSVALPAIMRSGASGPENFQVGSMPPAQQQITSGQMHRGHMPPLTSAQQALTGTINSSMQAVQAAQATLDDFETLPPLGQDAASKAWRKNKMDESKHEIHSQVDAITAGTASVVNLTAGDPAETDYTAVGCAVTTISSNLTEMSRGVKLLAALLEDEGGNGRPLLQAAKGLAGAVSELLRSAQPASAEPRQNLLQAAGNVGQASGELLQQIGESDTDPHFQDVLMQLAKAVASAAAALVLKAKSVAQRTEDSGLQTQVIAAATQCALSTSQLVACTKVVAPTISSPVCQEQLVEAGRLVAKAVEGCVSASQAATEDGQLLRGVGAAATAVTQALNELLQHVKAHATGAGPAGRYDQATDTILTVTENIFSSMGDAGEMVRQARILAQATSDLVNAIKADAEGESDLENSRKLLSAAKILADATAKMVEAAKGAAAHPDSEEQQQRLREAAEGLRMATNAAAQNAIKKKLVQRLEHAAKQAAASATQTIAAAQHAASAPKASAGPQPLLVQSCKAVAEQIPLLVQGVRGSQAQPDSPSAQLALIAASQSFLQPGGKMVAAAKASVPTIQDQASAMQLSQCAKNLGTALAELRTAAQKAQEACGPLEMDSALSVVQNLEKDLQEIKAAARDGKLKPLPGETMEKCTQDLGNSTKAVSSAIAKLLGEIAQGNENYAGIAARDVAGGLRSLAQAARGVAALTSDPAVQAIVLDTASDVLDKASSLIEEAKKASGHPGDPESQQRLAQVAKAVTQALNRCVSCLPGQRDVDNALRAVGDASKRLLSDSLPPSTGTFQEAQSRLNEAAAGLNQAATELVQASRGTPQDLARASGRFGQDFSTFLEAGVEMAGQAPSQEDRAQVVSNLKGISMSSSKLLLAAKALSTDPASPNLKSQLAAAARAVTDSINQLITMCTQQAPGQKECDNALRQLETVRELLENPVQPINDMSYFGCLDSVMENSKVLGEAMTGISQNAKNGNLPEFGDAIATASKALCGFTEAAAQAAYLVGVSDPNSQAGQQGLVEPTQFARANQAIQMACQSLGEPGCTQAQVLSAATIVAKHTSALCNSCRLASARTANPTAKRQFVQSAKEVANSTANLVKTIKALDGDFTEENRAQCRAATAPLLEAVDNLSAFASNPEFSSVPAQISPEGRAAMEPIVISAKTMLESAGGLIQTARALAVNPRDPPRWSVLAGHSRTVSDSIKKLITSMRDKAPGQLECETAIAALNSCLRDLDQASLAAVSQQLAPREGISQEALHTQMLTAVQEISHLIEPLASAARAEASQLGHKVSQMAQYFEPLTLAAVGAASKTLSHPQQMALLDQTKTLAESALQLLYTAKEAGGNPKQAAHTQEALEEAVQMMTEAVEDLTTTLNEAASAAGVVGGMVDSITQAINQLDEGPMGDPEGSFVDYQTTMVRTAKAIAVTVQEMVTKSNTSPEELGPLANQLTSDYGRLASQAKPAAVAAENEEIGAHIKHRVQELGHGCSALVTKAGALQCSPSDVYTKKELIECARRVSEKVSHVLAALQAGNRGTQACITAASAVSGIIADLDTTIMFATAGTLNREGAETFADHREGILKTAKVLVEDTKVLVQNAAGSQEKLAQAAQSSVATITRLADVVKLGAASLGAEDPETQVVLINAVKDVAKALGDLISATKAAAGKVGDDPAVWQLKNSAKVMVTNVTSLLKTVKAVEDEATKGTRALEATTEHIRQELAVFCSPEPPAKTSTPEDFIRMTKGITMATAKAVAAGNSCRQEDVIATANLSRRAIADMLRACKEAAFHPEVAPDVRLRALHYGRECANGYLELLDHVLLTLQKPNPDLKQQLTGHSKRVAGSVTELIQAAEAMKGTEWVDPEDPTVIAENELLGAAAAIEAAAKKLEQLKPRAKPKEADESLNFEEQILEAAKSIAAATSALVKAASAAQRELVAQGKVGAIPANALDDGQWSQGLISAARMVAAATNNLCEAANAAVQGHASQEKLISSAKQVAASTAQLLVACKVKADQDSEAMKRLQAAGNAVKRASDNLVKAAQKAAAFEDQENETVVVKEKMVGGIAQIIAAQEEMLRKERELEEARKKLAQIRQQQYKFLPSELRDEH
# UniProt P05106, residues 742-788: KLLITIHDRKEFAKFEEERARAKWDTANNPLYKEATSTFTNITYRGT
# GST-paxillin 161–605 (P49023, form named): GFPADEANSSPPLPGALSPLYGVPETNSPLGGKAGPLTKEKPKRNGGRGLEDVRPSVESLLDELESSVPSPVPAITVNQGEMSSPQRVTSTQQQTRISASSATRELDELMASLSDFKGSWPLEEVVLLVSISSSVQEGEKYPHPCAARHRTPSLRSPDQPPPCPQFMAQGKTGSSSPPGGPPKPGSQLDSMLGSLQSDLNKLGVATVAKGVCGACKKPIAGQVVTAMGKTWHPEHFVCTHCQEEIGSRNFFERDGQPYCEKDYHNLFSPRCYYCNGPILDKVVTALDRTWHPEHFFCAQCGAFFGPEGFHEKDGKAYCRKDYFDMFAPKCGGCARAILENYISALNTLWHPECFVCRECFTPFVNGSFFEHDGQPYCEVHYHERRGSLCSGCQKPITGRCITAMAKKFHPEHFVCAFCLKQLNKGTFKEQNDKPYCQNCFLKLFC
# UniProt Q8VI36: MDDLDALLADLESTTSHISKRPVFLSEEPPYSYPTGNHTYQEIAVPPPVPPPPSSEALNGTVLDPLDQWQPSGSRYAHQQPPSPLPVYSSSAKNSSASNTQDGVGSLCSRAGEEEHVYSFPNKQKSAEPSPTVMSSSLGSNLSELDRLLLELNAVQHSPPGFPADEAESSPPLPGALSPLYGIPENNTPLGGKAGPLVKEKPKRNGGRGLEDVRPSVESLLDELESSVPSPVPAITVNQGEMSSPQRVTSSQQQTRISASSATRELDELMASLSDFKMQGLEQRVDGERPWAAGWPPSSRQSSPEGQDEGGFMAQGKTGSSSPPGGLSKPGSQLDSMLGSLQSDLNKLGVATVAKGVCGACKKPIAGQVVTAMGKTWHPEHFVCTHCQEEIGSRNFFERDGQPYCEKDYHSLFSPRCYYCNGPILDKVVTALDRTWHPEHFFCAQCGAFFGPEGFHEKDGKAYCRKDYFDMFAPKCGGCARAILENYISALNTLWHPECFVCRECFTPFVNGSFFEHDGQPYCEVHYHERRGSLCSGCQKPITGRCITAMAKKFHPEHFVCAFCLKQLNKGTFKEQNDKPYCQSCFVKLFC
# Columns and labels:
# [1] = target: ypet-tagged talin-1 R2 mut (A680E/K687E) (mouse) (UniProt P26039); test: co-IP; anti-GFP immunoprecipitation (µMACS GFP Isolation Kit) of ypet-talin from talin^1/2dKO fibroblasts re-adhered on fibronectin for 4 h, cross-linked with 0.5 mM DSP, lysed in MPER buffer; western blot
# [2] = target: C-terminally ypet-tagged full-length talin WT (mouse) (UniProt P26039); test: as above
# [3] = target: ypet-tagged talin-1 R11mut (T2126E/K2133E) (mouse) (UniProt P26039); test: as above
# [4] = target: GST-integrin beta3 cytoplasmic tail (UniProt P05106); test: pull-down; GST-integrin-β3 CT on glutathione-Sepharose 4B beads, full-length talin as prey; 25 mM Tris-HCl pH 7.5, 150 mM NaCl, 0.5 mM TCEP, 0.01 or 0.1% NP40, 4 °C; both purified
# [5] = target: GST-paxillin 161–605 (human) (UniProt P49023); test: pull-down; GST-paxillin (full length or fragments) on glutathione-Sepharose 4B beads, talin or talin fragments as prey; 25 mM Tris-HCl pH 7.5, 150 mM NaCl, 0.5 mM TCEP, 0.01 or 0.1% NP40, 4 °C; western blot or Coomassie; both purified
binding [1],binding [2],binding [3],binding [4],binding [5],Substance
binds,binds,binds,,,"paxillin (endogenous, fibroblasts) (from UniProt Q8VI36 1-591)"
,,,binds,no binding,"constitutively activated full-length talin mutant tlnM3 (M319A, T1767L, E1770K) (from UniProt P26039 1-2541)"

# Source: PMC9054839
